Reference: PubChem BioAssay AID2549 (National Center for Advancing Translational Sciences (NCATS), 2010)
Hit rate of the full screen: of about 240,000 compounds, about 1,300 (0.54%) were called active. The shares of active, inactive and inconclusive entries below differ from those in the screen. Calls come from the whole dose curve; as a rule, active = well fitted inhibition curve with a large enough effect; inconclusive = small, poorly fitted or top-dose-only effect; inactive = flat fitted curve, though single readings scatter. Potencies beside an inconclusive call are fits to weak or partial responses and may not hold up.
Note: nearly all actives have a fitted effect of over 30% in size.
Potency is the fitted concentration of half-maximal effect.

Protein sequences, listed by entry. Tags and fused reporters are not part of them. Lines headed by an entry give the natural chain unless they say otherwise; changes in a name come on top.
UniProt P46063: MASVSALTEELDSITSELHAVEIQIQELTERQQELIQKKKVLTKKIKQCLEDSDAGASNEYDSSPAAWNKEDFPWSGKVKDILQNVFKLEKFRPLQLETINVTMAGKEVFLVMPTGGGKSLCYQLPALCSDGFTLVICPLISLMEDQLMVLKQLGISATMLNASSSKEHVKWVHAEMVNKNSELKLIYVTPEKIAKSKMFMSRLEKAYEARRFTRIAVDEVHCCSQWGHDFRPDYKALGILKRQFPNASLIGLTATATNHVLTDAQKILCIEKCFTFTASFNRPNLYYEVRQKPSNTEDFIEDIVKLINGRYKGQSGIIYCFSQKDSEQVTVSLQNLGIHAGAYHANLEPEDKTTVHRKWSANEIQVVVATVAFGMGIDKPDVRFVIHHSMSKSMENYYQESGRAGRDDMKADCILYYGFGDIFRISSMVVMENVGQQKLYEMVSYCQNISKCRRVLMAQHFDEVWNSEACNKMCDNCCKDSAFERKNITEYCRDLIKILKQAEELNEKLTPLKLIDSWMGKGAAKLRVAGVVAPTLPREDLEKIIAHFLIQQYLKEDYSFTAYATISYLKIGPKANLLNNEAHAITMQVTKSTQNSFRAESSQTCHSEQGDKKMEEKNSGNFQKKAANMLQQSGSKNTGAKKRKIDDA

What follows are compounds tested against ATP-dependent DNA helicase Q1 (Homo sapiens) (UniProt P46063) (assay: qHTS Assay for Inhibitors of RecQ-Like Dna Helicase 1 (RECQ1)). Details: RECQ1 DNA unwinding, red fluorescence kinetic read; series mostly up to 57.3 µM.
Procedure, shortened: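 RECQ1T1 50 nM; forked duplex (20 bp + 30-nt ss tails) 200 nM, ATP 2 mM final; pH 8.0, 2 mM MgCl2, 2.5 ug/ml poly(dI-dC); 15 min compound preincubation; discontinuous kinetic read over 2 h at RT.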
For `O=C1C(Cl)=C(N2CCC(C(=O)O)CC2)C(=O)c2ccccc21`, the Potency was active: 22.4 µM. In the case of `O=C(/C=C/c1ccc(O)cc1)c1ccc(NC2=C(N3CCCCC3)C(=O)c3ccccc3C2=O)cc1`, the Potency is reported as inconclusive: 17.8 µM [inhibitor, single point]. With `O=C1CCC2(CC1)NC(=O)N(c1ccccc1)N2` the Potency was inconclusive: 3.16 µM [inhibitor, partial curve]. `COc1cccc(/C=C(/C(=O)OCC(=O)NC2CCCCCCC2)c2ccccc2)c1` was tested, and the Potency was inconclusive: 39.8 µM [inhibitor, single point]. For `CCCC(=O)OC/C(O)=C(\C#N)c1nc2ccccc2[nH]1`, the Potency was “inactive”. `O=C(c1ccccc1)c1nn(-c2cccc(Cl)c2)c2nc(-c3ccccc3)cc(=O)n12` was tested, and the Potency was inconclusive: 7.08 µM [inhibitor, single point]. With `CC(C)N=c1scc(-c2cccs2)n1/N=C/c1ccc(O)c(O)c1O` the Potency was “inactive”. `CC(=O)Nc1ccc2c(c1)C(C)(C)C(C)N2C` (stereo not given) was tested, and the Potency was active: 35.5 µM. For `Cc1cccc(OCCC(=O)Nc2ccc(C)c(S(=O)(=O)N3CCCCC3)c2)c1`, the Potency was inconclusive: 28.2 µM [inhibitor, single point]. `N#CC(C#N)=Cc1cccn1-c1ccc(C(=O)O)cc1` was tested, and the Potency was active: 25.1 µM. `CN(c1cccc(Cl)c1)S(=O)(=O)c1cccc(C(=O)Nc2ccc3c(c2)CCC3)c1` was tested, and the Potency was “inactive”. For `O=C(NCc1ccc2c(c1)OCO2)c1cc2ncc(Br)cn2n1`, the Potency was “inactive”. `O=C(COc1ccc2c3c(c(=O)oc2c1)CCC3)c1ccc2c(c1)OCO2` was tested, and the Potency was inconclusive: 39.8 µM [inhibitor, single point]. For `O=C(NCc1ccco1)c1ccc2c(=O)n(Cc3ccco3)c(SCC(=O)N3CCCC3)nc2c1`, the Potency was inconclusive: 39.8 µM [inhibitor, single point]. `CC1=C[C@H]2OC(=O)[C@@H](C)[C@H]2C[C@@H]2[C@H]1C[C@@H](O)[C@@]2(C)O` was tested, and the Potency was inconclusive: 39.8 µM [inhibitor, partial curve]. For `c1ccc(CSc2nnc(-c3ccco3)c(-c3ccco3)n2)cc1`, the Potency was active: 11.2 µM. With `O=C1N/C(=C/c2cccn2-c2ccc(F)cc2)C(=O)N1Cc1ccccc1F` the Potency was “inactive”. With `Nc1c(S(=O)(=O)O)cc(Nc2ccc(Nc3nc(Cl)nc(Nc4ccc(S(=O)(=O)O)cc4)n3)c(S(=O)(=O)O)c2)c2c1C(=O)c1ccccc1C2=O` the Potency was active: 0.891 µM. With `COc1ccccc1C(CCN(Cc1cccs1)C(C)=O)c1ccco1` (stereo not given) the Potency was inconclusive: 28.2 µM [inhibitor, partial curve]. `CCOC(=O)C1=CN(C(=O)OC(C)(C)C)C(CN2C(=O)COCC2=O)C1` (stereo not given) was tested, and the Potency was “inactive”.
